From the supplement of paper PMC10849652
The list shows a part of the results.

By UniProt entry, the sequences of proteins in these tests, tags left out. Where a name states a change or a piece, a line headed by the entry shows the natural chain unless it says otherwise.
UniProt P23786: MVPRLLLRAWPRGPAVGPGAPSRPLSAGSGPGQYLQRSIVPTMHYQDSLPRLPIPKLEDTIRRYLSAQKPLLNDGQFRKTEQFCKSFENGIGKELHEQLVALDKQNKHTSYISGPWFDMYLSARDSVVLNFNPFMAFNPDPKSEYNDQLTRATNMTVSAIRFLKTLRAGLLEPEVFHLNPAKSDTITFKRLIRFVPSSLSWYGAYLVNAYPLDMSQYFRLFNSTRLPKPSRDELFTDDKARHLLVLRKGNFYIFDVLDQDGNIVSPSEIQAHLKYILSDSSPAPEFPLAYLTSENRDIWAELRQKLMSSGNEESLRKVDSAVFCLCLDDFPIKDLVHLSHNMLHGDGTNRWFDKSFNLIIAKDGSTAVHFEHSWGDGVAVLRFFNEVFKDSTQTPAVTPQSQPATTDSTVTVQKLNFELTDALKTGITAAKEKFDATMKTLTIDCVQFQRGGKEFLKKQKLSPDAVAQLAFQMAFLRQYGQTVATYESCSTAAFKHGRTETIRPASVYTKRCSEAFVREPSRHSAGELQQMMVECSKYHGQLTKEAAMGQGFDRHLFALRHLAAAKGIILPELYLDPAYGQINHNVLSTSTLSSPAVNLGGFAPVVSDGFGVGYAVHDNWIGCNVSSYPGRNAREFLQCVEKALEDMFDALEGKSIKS
UniProt Q7L5N1: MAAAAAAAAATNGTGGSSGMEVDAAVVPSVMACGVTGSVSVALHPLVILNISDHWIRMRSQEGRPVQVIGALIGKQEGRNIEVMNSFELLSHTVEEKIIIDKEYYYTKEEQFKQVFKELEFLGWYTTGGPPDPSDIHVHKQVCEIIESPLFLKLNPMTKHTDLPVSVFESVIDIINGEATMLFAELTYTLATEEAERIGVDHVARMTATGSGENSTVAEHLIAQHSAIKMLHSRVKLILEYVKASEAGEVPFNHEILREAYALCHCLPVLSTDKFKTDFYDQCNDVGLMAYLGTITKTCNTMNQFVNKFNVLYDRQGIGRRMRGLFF
UniProt Q86X83, whole entry, looked up: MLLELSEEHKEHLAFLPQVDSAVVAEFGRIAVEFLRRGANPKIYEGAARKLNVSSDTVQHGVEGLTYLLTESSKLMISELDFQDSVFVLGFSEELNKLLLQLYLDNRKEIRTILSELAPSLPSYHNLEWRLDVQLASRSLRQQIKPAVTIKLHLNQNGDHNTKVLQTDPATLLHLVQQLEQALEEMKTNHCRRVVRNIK
UniProt P29373: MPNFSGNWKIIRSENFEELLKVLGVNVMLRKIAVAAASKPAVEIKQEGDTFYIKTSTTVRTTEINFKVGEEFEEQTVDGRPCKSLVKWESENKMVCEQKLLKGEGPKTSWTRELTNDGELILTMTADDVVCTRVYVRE
UniProt Q9Y2V7: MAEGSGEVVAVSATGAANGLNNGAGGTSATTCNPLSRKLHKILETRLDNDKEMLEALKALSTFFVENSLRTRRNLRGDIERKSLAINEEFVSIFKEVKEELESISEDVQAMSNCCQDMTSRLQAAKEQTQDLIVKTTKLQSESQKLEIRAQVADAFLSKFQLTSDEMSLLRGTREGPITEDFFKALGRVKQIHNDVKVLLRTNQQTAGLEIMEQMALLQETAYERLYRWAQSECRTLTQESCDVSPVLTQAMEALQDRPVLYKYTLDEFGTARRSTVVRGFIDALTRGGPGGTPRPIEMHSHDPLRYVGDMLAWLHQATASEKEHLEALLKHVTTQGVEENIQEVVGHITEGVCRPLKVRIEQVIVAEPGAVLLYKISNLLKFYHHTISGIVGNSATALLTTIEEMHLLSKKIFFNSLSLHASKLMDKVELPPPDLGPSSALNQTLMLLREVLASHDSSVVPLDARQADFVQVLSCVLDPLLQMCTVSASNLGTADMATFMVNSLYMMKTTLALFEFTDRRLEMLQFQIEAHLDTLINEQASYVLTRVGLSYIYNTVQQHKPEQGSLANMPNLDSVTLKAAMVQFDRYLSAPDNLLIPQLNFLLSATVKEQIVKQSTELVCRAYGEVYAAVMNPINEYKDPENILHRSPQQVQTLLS
UniProt Q5JTJ3: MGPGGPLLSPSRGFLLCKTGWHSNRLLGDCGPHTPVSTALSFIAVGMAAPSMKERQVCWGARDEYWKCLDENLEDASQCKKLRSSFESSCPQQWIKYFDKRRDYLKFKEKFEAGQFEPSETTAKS
UniProt Q9NZN8, whole entry, looked up: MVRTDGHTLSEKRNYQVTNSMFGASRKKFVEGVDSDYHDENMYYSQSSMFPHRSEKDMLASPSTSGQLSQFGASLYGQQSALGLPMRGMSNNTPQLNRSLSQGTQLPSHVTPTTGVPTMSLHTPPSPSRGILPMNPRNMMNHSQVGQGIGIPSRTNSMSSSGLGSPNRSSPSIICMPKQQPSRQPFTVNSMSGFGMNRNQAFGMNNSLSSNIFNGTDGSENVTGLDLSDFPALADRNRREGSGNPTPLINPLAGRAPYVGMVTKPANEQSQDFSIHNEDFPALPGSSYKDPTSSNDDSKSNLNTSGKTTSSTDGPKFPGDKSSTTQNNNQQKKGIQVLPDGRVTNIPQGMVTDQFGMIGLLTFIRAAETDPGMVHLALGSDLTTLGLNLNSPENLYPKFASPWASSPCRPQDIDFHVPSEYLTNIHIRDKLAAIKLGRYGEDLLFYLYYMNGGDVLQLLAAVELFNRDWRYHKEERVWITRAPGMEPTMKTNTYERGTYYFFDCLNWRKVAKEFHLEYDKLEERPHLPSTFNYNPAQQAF
UniProt P09669, whole entry, looked up: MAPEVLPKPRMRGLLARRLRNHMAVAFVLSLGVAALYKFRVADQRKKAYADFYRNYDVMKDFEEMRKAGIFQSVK
UniProt Q9UP83: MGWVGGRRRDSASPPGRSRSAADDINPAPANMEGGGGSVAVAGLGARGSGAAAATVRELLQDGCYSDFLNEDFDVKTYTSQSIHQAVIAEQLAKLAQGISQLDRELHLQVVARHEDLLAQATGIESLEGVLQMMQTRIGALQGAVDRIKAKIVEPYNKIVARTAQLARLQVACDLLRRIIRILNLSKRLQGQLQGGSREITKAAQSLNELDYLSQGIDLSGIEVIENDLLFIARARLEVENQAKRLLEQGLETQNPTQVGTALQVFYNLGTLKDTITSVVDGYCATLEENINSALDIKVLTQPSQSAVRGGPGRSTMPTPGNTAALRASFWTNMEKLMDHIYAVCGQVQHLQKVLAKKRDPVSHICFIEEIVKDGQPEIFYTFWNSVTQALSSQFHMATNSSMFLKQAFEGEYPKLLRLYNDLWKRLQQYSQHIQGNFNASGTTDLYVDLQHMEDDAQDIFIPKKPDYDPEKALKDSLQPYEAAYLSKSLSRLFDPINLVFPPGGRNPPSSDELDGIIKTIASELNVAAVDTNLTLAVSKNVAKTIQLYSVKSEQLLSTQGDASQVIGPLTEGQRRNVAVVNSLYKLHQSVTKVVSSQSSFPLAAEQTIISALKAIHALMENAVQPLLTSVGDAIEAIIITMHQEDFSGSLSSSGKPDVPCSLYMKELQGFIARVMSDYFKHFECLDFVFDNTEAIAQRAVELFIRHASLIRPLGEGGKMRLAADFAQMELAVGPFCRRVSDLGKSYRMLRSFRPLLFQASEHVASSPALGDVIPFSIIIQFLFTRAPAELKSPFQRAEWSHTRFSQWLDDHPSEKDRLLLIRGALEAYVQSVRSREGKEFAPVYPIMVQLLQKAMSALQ
UniProt P38432, whole entry, looked up: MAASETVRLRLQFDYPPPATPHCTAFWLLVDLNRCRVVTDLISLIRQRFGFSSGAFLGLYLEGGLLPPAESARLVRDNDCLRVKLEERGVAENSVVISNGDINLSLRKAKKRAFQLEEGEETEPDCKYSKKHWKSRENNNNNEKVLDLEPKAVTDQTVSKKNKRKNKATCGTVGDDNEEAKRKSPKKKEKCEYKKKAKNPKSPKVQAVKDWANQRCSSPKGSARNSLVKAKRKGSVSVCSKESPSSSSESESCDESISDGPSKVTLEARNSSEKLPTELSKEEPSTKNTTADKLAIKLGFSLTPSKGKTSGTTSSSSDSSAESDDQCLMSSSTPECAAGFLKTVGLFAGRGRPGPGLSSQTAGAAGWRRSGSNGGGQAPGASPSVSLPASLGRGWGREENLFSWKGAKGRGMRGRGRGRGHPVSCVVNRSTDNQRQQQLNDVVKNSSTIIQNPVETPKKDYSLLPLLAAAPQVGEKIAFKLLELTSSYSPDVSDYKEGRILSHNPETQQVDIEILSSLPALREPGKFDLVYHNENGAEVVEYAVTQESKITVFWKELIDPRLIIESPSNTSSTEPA
UniProt P31146: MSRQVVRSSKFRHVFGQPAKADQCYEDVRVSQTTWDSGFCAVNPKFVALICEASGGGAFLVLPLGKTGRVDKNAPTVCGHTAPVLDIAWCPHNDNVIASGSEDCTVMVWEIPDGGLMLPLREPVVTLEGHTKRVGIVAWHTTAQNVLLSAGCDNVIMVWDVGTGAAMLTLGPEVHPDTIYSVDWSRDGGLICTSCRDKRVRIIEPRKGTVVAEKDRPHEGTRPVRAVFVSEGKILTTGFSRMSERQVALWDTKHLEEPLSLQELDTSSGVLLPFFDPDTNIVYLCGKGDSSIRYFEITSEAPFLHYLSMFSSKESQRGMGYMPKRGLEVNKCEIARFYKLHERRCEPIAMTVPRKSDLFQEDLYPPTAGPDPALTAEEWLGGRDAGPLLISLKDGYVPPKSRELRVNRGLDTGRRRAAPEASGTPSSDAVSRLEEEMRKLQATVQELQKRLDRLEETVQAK
UniProt P14854, whole entry, looked up: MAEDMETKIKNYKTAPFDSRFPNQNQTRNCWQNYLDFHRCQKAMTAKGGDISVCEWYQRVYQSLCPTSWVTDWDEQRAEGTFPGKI
UniProt Q96MW5: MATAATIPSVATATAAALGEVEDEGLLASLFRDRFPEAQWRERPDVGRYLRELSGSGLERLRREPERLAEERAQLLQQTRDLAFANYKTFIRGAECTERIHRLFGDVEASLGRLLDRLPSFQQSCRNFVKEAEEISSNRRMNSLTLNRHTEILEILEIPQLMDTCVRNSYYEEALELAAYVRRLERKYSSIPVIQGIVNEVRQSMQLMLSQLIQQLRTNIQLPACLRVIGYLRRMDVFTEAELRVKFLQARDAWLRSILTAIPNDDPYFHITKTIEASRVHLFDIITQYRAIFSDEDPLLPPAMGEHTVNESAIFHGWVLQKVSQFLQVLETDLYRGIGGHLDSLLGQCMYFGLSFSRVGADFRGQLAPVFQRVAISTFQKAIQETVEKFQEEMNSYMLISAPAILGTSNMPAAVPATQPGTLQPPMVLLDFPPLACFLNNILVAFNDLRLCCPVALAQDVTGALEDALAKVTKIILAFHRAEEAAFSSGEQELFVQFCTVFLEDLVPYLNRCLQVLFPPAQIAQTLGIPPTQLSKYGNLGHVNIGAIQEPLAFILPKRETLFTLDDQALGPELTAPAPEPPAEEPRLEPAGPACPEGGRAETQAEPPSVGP
UniProt Q8N129: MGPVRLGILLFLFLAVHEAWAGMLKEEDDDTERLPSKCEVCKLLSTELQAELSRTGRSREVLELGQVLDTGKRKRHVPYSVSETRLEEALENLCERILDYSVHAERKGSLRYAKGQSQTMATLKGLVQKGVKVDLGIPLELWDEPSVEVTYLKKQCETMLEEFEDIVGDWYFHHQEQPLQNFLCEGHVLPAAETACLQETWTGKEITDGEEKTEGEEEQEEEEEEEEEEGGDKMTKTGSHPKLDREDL
UniProt Q9P2I0: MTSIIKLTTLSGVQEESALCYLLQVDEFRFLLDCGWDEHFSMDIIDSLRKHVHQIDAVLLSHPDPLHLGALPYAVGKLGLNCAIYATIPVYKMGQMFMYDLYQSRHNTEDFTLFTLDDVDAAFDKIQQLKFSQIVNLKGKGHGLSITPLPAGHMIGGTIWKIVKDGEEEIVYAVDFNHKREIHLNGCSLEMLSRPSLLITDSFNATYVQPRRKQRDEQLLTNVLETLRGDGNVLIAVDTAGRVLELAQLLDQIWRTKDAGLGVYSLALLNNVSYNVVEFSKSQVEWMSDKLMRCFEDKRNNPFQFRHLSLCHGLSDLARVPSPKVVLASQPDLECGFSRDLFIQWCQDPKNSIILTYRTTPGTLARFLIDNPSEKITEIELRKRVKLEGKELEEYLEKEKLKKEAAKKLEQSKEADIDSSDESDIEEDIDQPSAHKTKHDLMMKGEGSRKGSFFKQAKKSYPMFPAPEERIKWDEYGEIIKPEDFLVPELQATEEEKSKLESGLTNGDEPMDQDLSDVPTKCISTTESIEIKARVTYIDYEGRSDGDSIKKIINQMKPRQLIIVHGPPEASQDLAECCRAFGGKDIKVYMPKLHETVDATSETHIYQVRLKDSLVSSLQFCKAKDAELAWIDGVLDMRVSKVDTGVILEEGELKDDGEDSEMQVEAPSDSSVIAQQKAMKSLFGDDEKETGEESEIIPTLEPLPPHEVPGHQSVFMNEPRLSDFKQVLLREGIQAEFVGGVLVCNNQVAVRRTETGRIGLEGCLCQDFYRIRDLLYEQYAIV

Columns and labels:
Experiment in all cases: log2 fold change, soluble protein after heating vs DMSO (PISA); higher = thermal stabilisation; K562 lysate, 10 uM; active = over 0.2 and 3.5 SD of the protein, either way, in both replicates (recomputed)
erlotinib = compound: C#Cc1cccc(Nc2ncnc3cc(OCCOC)c(OCCOC)cc23)c1 [erlotinib]
Summary of the method: (§1)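 Thermal stability, expressed as log-two fold change relative to solvent controls, is given from duplicates. Crude K562 extract in PBS pH 7.4 with 1 mM MgCl2, at 1 mg/mL protein, was treated with 10 μM compound for 30 min and heated in aliquots for 3 min across 48°C-58°C. After pooling, adjustment to 0.5% NP-40 at 4°C and centrifugation at 21,000xg for 90 min, supernatant protein was measured by TMTpro 16plex LC-MS/MS with channel sums equalised.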

[1] = compound: C/C(=N\NC(=O)C1=CC(=CC=C1)S(=O)(=O)N2CCOCC2)/C3=C(C=CC(=C3)Cl)O
Summary of the method: as §1

[2] = compound: C1=CC(=CC=C1C2=NC3=C(N2)C=C(C=C3)C(=O)N)OC4=CC=C(C=C4)Cl
Summary of the method: as §1

[3] = compound: C1=CC2=C(C=CC(=C2)/C=C\3/C(=O)NC(=NCC4=CC=CS4)S3)N=C1
Summary of the method: as §1

[4] = compound: C1=CC2=NC=CN=C2C=C1/C=C/3\C(=O)NC(=O)S3
Summary of the method: as §1

[5] = compound: C1=CC=C(C=C1)C2=NC(=C(N2)C3=CC=NC=C3)C4=CC(=C(C=C4)Cl)O
Summary of the method: as §1

[6] = compound: C1=CC=C2C(=C1)C3=NNC4=CC=CC(=C43)C2=O
Summary of the method: as §1

[7] = compound: C1CCN(C1)C(=O)NC2=CC=CC(=C2)NC3=NC=C(C(=N3)NCCC4=CN=CN4)Br
Summary of the method: as §1

[8] = compound: C1CN(CCC1(CC2=CC=C(C=C2)Cl)N)C3=NC=NC4=C3C=CN4
Summary of the method: as §1

IRAK-1-4 Inhibitor I = compound: C1COCCN1CCN2C3=CC=CC=C3N=C2NC(=O)C4=CC(=CC=C4)[N+](=O)[O-] [IRAK-1-4 Inhibitor I]
Summary of the method: as §1

ibrutinib = compound: C=CC(=O)N1CCC[C@@H](n2nc(-c3ccc(Oc4ccccc4)cc3)c3c(N)ncnc32)C1 [ibrutinib]
Summary of the method: as §1

[9] = compound: CC(=O)c1cnc2ccc(-c3cc(Cl)c(O)c(Cl)c3)nc2c1N[C@H]1CC[C@H](CN(C)C)CC1
Summary of the method: as §1

ralimetinib = compound: CC(C)(C)Cn1c(N)nc2ccc(-c3[nH]c(C(C)(C)C)nc3-c3ccc(F)cc3)nc21 [ralimetinib]
Summary of the method: as §1

[10] = compound: CC(C)(O)CC(=O)NCCn1ccc2ncnc(Nc3ccc(Oc4cccc(C(F)(F)F)c4)c(Cl)c3)c21
Summary of the method: as §1

[11] = compound: CC(C)C1=C2N=C(C=C(N2N=C1)NCC3=CC=CC=C3)NCCCCCCN
Summary of the method: as §1

[12] = compound: CC1=C(C(CC(=O)N1)C2=CC=C(C=C2)C(F)(F)F)C(=O)NC3=C(C=C4C(=C3)C=NN4)F
Summary of the method: as §1

[13] = compound: CC1=C(C2=C(C=C1)C(=O)C3=CC=CC=C3N2CCCN)C
Summary of the method: as §1

[14] = compound: CC1=C(C=C(C=C1)NC(=O)C2=CC(=CC=C2)C(C)(C)C#N)NC3=CC4=C(C=C3)N=CN(C4=O)C
Summary of the method: as §1

[15] = compound: CC1=C(C=C(C=C1)NC(=O)C2=CC(=CC=C2)N(C)C)NC(=O)C3=CC=C(C=C3)O
Summary of the method: as §1

[16] = compound: CC1=CC=C(C=C1)SC2=C3C=C(SC3=CN=C2)C(=O)N
Summary of the method: as §1

Measured: log2 fold change

CPT2 (UniProt P23786)
inactive: erlotinib -0.04 | [1] 0.094 | [2] -0.039 | [3] 0.001 | [4] 0.015 | [5] 0.019 | [6] -0.008 | [7] -0.038 | [8] -0.028 | IRAK-1-4 Inhibitor I 0.06 | ibrutinib 0.116 | [9] -0.027 | ralimetinib -0.029 | [10] -0.067 | [11] 0.134 | [12] 0.018 | [13] -0.123 | [14] 0.047 | [15] 0.048 | [16] -0.047

COPS6 (UniProt Q7L5N1)
inactive: erlotinib -0.043 | [1] 0.035 | [2] -0.02 | [3] 0.04 | [4] -0.03 | [5] 0.019 | [6] 0.018 | [7] 0 | [8] -0.055 | IRAK-1-4 Inhibitor I 0.037 | ibrutinib 0.036 | [9] 0.021 | ralimetinib -0.011 | [10] 0.009 | [11] -0.071 | [12] -0.038 | [13] 0.031 | [14] 0.045 | [15] -0.026 | [16] 0.036

COMMD2 (UniProt Q86X83)
inactive: erlotinib 0.043 | [1] -0.074 | [2] -0.055 | [3] 0.02 | [4] 0.028 | [5] -0.054 | [6] -0.044 | [7] 0.006 | [8] -0.033 | IRAK-1-4 Inhibitor I 0.045 | ibrutinib -0.022 | [9] -0.037 | ralimetinib 0.058 | [10] -0.007 | [11] -0.001 | [12] 0.02 | [13] 0.009 | [14] 0.003 | [15] 0.012 | [16] 0.049

CRABP2 (UniProt P29373)
active: [7] 0.399
inactive: erlotinib 0.026 | [1] -0.112 | [2] -0.017 | [3] -0.063 | [4] 0.2 | [5] -0.042 | [6] -0.151 | [8] 0.309 | IRAK-1-4 Inhibitor I -0.024 | ibrutinib -0.039 | [9] 0.061 | ralimetinib 0.097 | [10] -0.015 | [11] -0.002 | [12] 0.176 | [13] -0.088 | [14] -0.028 | [15] 0.082 | [16] -0.03

COG6 (UniProt Q9Y2V7)
inactive: erlotinib -0.059 | [1] 0.153 | [2] -0.074 | [3] -0.07 | [4] -0.008 | [5] 0.015 | [6] 0.024 | [7] 0.008 | [8] 0.077 | IRAK-1-4 Inhibitor I 0.006 | ibrutinib -0.003 | [9] 0.005 | ralimetinib 0.016 | [10] -0.059 | [11] -0.028 | [12] -0.017 | [13] 0.016 | [14] 0.004 | [15] 0.033 | [16] 0.021

COA6 isoform 2 (UniProt Q5JTJ3)
inactive: erlotinib 0.025 | [1] 0.098 | [2] -0.012 | [3] -0.038 | [4] 0.076 | [5] 0.044 | [6] -0.069 | [7] 0.045 | [8] 0.085 | IRAK-1-4 Inhibitor I -0.162 | ibrutinib 0 | [9] -0.001 | ralimetinib -0.249 | [10] -0.065 | [11] -0.047 | [12] 0.136 | [13] 0.019 | [14] -0.012 | [15] 0.052 | [16] -0.032

CNOT2 (UniProt Q9NZN8)
inactive: erlotinib 0.016 | [1] 0.013 | [2] 0.021 | [3] 0.015 | [4] -0.016 | [5] -0.011 | [6] 0.014 | [7] 0.004 | [8] 0.012 | IRAK-1-4 Inhibitor I 0.007 | ibrutinib 0.022 | [9] 0.037 | ralimetinib 0.016 | [10] -0.013 | [11] -0.001 | [12] -0.01 | [13] 0.03 | [14] 0.006 | [15] -0.007 | [16] 0.011

COX6C (UniProt P09669)
inactive: erlotinib -0.027 | [1] 0.048 | [2] -0.034 | [3] 0.022 | [4] 0.004 | [5] -0.005 | [6] 0.046 | [7] 0.008 | [8] -0.002 | IRAK-1-4 Inhibitor I 0.004 | ibrutinib 0.001 | [9] -0.008 | ralimetinib 0.003 | [10] 0.021 | [11] -0.014 | [12] -0.027 | [13] -0.025 | [14] -0.023 | [15] -0.04 | [16] -0.013

COG5 isoform 2 (UniProt Q9UP83)
inactive: erlotinib 0.073 | [1] 0.016 | [2] -0.044 | [3] 0.001 | [4] -0.004 | [5] 0.019 | [6] 0.031 | [7] 0.019 | [8] 0.043 | IRAK-1-4 Inhibitor I -0.001 | ibrutinib 0.061 | [9] -0.036 | ralimetinib 0.074 | [10] -0.027 | [11] 0.037 | [12] -0.005 | [13] 0.04 | [14] -0.016 | [15] 0.073 | [16] 0.052

COIL (UniProt P38432)
inactive: erlotinib 0.007 | [1] 0.003 | [2] 0.029 | [3] -0.037 | [4] 0.053 | [5] 0.02 | [6] 0.047 | [7] -0.03 | [8] 0.116 | IRAK-1-4 Inhibitor I 0.003 | ibrutinib 0.058 | [9] 0.075 | ralimetinib 0.014 | [10] 0.009 | [11] 0 | [12] 0.091 | [13] 0.019 | [14] 0.012 | [15] -0.01 | [16] 0.11

2 records picked at random from the list so far:
COX6C (UniProt P09669)
inactive: erlotinib -0.027 | [1] 0.048 | [2] -0.034 | [3] 0.022 | [4] 0.004 | [5] -0.005 | [6] 0.046 | [7] 0.008 | [8] -0.002 | IRAK-1-4 Inhibitor I 0.004 | ibrutinib 0.001 | [9] -0.008 | ralimetinib 0.003 | [10] 0.021 | [11] -0.014 | [12] -0.027 | [13] -0.025 | [14] -0.023 | [15] -0.04 | [16] -0.013

COIL (UniProt P38432)
inactive: erlotinib 0.007 | [1] 0.003 | [2] 0.029 | [3] -0.037 | [4] 0.053 | [5] 0.02 | [6] 0.047 | [7] -0.03 | [8] 0.116 | IRAK-1-4 Inhibitor I 0.003 | ibrutinib 0.058 | [9] 0.075 | ralimetinib 0.014 | [10] 0.009 | [11] 0 | [12] 0.091 | [13] 0.019 | [14] 0.012 | [15] -0.01 | [16] 0.11

Next entries:

COL6A5 (UniProt A8TX70)
inactive: erlotinib 0.064 | [1] 0.161 | [2] 0.02 | [3] -0.062 | [4] -0.167 | [5] 0.027 | [6] 0.014 | [7] 0.014 | [8] -0.052 | IRAK-1-4 Inhibitor I 0.046 | ibrutinib 0.046 | [9] -0.023 | ralimetinib -0.083 | [10] -0.141 | [11] 0.018 | [12] 0.063 | [13] -0.038 | [14] 0.108 | [15] -0.011 | [16] -0.053

CORO1A (UniProt P31146)
inactive: erlotinib 0.077 | [1] 0.086 | [2] -0.032 | [3] 0.036 | [4] -0.022 | [5] 0.005 | [6] 0.009 | [7] 0.155 | [8] -0.031 | IRAK-1-4 Inhibitor I 0.021 | ibrutinib 0.028 | [9] -0.031 | ralimetinib -0.015 | [10] -0.021 | [11] 0.055 | [12] 0.018 | [13] -0.107 | [14] 0.025 | [15] -0.036 | [16] 0.012

COX6B1 (UniProt P14854)
inactive: erlotinib 0.014 | [1] 0.129 | [2] -0.009 | [3] 0.063 | [4] -0.061 | [5] -0.062 | [6] -0.023 | [7] -0.024 | [8] 0.066 | IRAK-1-4 Inhibitor I -0.033 | ibrutinib 0.07 | [9] -0.068 | ralimetinib -0.007 | [10] -0.108 | [11] 0.018 | [12] 0.015 | [13] -0.061 | [14] 0.034 | [15] 0.024 | [16] -0.009

COG8 (UniProt Q96MW5)
inactive: erlotinib -0.097 | [1] 0.006 | [2] -0.065 | [3] 0.026 | [4] 0.05 | [5] 0.063 | [6] 0 | [7] 0.052 | [8] -0.011 | IRAK-1-4 Inhibitor I 0.01 | ibrutinib 0.009 | [9] 0.015 | ralimetinib 0.034 | [10] -0.03 | [11] 0.054 | [12] 0.044 | [13] -0.049 | [14] -0.087 | [15] 0.033 | [16] 0.003

CNPY4 (UniProt Q8N129)
inactive: erlotinib 0.047 | [1] -0.068 | [2] -0.015 | [3] 0.049 | [4] 0.016 | [5] -0.085 | [6] -0.034 | [7] 0.045 | [8] -0.03 | IRAK-1-4 Inhibitor I -0.012 | ibrutinib -0.004 | [9] 0.01 | ralimetinib 0.013 | [10] -0.263 | [11] -0.023 | [12] 0.009 | [13] 0.06 | [14] 0.033 | [15] -0.053 | [16] -0.07

CPSF2 (UniProt Q9P2I0)
inactive: erlotinib -0.002 | [1] -0.031 | [2] -0.003 | [3] -0.011 | [4] -0.014 | [5] 0.003 | [6] 0.011 | [7] -0.016 | [8] 0.021 | IRAK-1-4 Inhibitor I 0.015 | ibrutinib 0.011 | [9] -0.012 | ralimetinib -0.022 | [10] 0.086 | [11] -0.006 | [12] 0.045 | [13] -0.001 | [14] -0.026 | [15] 0.025 | [16] 0.013
